# Measurements taken from patent US6743609B1, “Linoleate isomerase” (Arkion Life Sciences LLC, priority 1997, dated 2004).
# Like-named read-outs stand apart in the source and are kept apart here. Some compounds share one wording; it may come from a single statement. Where a SMILES comes first, the peptide text is derived from it. [ ]: non-standard residue; d: D form. The star is where a group is joined. Sta = CC(C)C[C@H](N)[C@@H](O)CC(=O)O; Isovaleryl = CC(C)CC(=O)*
# Test system: C. sporogenes ATCC 25762 linoleate isomerase
# Test: Stability of C. sporogenes linoleate isomerase
# Format: biochemical, Clostridium sporogenes
# Conditions: for effect on enzyme activity and stability: crude extracts
smiles,measurement,setting,value
"c1cnc2c(c1)ccc1cccnc12 [1,10-phenanthroline]",effect on enzyme activity and stability,,protected
O=C(O)CN(CCN(CC(=O)O)CC(=O)O)CC(=O)O [EDTA],effect on enzyme activity and stability,1 mM,negative effect
O=S(=O)(F)Cc1ccccc1 [PMSF],effect on the stability of isomerase,0.1-1.0 mM,None provided measurable benefit
NC(=O)CI [iodoacetamide],effect on the stability of isomerase,1 mM,None provided measurable benefit
CC(C)CC(=O)N[C@H](C(=O)N[C@H](C(=O)N[C@@H](CC(C)C)[C@@H](O)CC(=O)N[C@@H](C)C(=O)N[C@@H](CC(C)C)[C@@H](O)CC(=O)O)C(C)C)C(C)C [pepstatin A] (Isovaleryl-VV[Sta]A[Sta]-OH),effect on the stability of isomerase,,None provided measurable benefit
